These are yes or no findings as the source states them, for the method shown. In cells and extracts the contact can be indirect. These calls come from enrichment with a bait or labelling near it, and not all partners need be listed. Tags and fused reporters may be left off the sequences shown.

Amino acid sequences for entries named in this document (tags omitted). Residues count along the entry.
UniProt P11142: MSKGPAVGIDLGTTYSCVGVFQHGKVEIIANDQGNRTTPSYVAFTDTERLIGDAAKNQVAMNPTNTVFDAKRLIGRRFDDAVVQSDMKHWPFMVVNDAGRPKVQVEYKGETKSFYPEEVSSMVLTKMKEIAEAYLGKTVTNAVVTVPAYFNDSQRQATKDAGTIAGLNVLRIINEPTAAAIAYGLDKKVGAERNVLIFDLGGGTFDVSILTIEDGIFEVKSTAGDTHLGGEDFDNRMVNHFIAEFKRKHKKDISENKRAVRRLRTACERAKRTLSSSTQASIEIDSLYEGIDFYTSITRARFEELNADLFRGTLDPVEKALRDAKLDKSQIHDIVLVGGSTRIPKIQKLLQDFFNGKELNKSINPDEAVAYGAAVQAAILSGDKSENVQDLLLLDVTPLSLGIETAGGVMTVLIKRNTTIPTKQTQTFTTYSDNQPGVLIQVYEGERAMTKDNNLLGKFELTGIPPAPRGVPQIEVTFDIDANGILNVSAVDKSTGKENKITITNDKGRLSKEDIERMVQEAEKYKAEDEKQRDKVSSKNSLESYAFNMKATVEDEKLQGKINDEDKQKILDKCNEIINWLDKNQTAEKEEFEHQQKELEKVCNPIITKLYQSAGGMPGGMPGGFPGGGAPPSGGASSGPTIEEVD
UniProt Q01844: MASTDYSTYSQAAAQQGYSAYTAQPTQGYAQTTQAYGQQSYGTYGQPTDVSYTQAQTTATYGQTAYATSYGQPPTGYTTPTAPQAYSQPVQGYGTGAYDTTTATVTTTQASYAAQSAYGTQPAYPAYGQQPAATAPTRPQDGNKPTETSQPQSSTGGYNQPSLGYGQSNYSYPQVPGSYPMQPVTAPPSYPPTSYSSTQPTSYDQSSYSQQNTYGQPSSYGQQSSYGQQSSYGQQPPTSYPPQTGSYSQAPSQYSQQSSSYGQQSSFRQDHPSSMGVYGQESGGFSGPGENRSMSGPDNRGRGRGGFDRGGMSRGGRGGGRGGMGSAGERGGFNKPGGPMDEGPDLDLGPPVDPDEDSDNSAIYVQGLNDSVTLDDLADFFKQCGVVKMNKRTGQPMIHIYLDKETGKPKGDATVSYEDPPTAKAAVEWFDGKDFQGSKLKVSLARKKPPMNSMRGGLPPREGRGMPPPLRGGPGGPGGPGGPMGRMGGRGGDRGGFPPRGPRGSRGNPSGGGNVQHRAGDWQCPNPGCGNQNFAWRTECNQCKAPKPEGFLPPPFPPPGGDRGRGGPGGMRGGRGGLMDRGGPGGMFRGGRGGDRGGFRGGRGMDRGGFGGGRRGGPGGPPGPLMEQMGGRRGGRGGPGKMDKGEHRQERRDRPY
UniProt P02671, residues 20-866: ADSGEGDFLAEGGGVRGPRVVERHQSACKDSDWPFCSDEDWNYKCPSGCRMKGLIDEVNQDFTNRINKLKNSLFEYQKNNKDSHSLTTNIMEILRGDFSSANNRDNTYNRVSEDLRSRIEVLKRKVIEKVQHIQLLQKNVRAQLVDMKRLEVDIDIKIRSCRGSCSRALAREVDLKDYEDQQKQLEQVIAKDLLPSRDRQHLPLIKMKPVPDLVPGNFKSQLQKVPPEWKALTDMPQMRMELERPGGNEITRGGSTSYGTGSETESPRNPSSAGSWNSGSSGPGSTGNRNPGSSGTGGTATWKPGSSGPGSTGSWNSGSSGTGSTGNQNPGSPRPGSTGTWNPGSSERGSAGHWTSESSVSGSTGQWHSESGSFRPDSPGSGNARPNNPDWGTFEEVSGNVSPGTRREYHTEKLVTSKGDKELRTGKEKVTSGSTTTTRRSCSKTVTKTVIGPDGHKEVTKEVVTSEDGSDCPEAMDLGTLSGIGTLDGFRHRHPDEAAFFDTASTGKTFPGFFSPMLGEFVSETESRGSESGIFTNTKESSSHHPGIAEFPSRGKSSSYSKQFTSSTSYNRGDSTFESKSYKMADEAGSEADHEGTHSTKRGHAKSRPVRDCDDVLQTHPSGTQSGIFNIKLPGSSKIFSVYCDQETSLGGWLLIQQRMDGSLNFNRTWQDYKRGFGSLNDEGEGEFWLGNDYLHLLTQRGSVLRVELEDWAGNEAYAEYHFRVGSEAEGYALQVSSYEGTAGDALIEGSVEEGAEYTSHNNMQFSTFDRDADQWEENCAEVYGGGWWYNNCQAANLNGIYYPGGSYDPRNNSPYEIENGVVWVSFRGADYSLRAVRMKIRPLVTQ
UniProt P14618: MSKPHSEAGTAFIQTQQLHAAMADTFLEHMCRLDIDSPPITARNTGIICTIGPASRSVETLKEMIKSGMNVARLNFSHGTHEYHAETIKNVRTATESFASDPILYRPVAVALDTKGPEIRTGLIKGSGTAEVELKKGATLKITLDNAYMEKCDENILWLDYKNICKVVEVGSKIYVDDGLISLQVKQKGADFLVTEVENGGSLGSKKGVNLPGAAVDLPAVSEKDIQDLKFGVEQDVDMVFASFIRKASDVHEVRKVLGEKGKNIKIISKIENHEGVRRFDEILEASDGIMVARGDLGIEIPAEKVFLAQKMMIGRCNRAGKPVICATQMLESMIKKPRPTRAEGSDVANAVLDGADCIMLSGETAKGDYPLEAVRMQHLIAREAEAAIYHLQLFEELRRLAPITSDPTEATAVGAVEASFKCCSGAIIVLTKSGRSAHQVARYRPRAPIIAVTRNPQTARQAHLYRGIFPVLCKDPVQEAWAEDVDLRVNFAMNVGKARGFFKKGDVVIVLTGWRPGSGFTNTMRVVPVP

T1: Flag-tagged GPX8 (Glutathione Peroxidase 8) (UniProt Q8TED1)
T1 sequence: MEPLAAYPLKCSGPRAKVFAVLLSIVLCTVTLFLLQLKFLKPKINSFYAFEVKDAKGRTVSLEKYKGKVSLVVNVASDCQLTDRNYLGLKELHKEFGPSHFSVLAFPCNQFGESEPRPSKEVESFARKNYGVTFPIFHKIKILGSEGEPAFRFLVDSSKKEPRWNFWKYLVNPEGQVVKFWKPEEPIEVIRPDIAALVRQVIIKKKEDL

B1: HNRNPM (protein, UniProt P52272 1-730)
chain: MAAGVEAAAEVAATEIKMEEESGAPGVPSGNGAPGPKGEGERPAQNEKRKEKNIKRGGNRFEPYANPTKRYRAFITNIPFDVKWQSLKDLVKEKVGEVTYVELLMDAEGKSRGCAVVEFKMEESMKKAAEVLNKHSLSGRPLKVKEDPDGEHARRAMQKVMATTGGMGMGPGGPGMITIPPSILNNPNIPNEIIHALQAGRLGSTVFVANLDYKVGWKKLKEVFSMAGVVVRADILEDKDGKSRGIGTVTFEQSIEAVQAISMFNGQLLFDRPMHVKMDERALPKGDFFPPERPQQLPHGLGGIGMGLGPGGQPIDANHLNKGIGMGNIGPAGMGMEGIGFGINKMGGMEGPFGGGMENMGRFGSGMNMGRINEILSNALKRGEIIAKQGGGGGGGSVPGIERMGPGIDRLGGAGMERMGAGLGHGMDRVGSEIERMGLVMDRMGSVERMGSGIERMGPLGLDHMASSIERMGQTMERIGSGVERMGAGMGFGLERMAAPIDRVGQTIERMGSGVERMGPAIERMGLSMERMVPAGMGAGLERMGPVMDRMATGLERMGANNLERMGLERMGANSLERMGLERMGANSLERMGPAMGPALGAGIERMGLAMGGGGGASFDRAIEMERGNFGGSFAGSFGGAGGHAPGVARKACQIFVRNLPFDFTWKMLKDKFNECGHVLYADIKMENGKSKGCGVVKFESPEVAERACRMMNGMKLSGREIDVRIDRNA
B2: YWHAQ (protein, UniProt P27348 1-245)
chain: MEKTELIQKAKLAEQAERYDDMATCMKAVTEQGAELSNEERNLLSVAYKNVVGGRRSAWRVISSIEQKTDTSDKKLQLIKDYREKVESELRSICTTVLELLDKYLIANATNPESKVFYLKMKGDYFRYLAEVACGDDRKQTIDNSQGAYQEAFDISKKEMQPTHPIRLGLALNFSVFYYEILNNPELACTLAKTAFDEAIAELDTLNEDSYKDSTLIMQLLRDNLTLWTSDSAGEECDAAEGAEN
B3: NONO (protein, UniProt Q15233 1-471)
chain: MQSNKTFNLEKQNHTPRKHHQHHHQQQHHQQQQQQPPPPPIPANGQQASSQNEGLTIDLKNFRKPGEKTFTQRSRLFVGNLPPDITEEEMRKLFEKYGKAGEVFIHKDKGFGFIRLETRTLAEIAKVELDNMPLRGKQLRVRFACHSASLTVRNLPQYVSNELLEEAFSVFGQVERAVVIVDDRGRPSGKGIVEFSGKPAARKALDRCSEGSFLLTTFPRPVTVEPMDQLDDEEGLPEKLVIKNQQFHKEREQPPRFAQPGSFEYEYAMRWKALIEMEKQQQDQVDRNIKEAREKLEMEMEAARHEHQVMLMRQDLMRRQEELRRMEELHNQEVQKRKQLELRQEEERRRREEEMRRQQEEMMRRQQEGFKGTFPDAREQEIRMGQMAMGGAMGINNRGAMPPAPVPAGTPAPPGPATMMPDGTLGLTPPTTERFGQAATMEGIGAIGGTPPAFNRAAPGAEFAPNKRRRY

The target of this test is T1, Flag-tagged GPX8 (Glutathione Peroxidase 8). Kind of test: affinity purification with mass spectrometry; anti-Flag IP from SNU449 or HEK-293T cells transfected with the Flag-tagged GPX8 overexpression plasmid; precipitated proteins analysed by LC-MS/MS.
As for “71-kDa heat shock cognate protein (Hsc70) (from UniProt P11142 1-646)”, the binding entry is reported as “binds”. For the molecule EWSR1 (from UniProt Q01844 1-656), the binding entry is given as “binds”.

Consider FGA (from UniProt P02671 20-866), for which the binding entry is on record as “binds”. Turning to PKM (from UniProt P14618 1-531), the binding result was “binds”. Turning to B1, the binding result is recorded as “binds”. Consider B2, for which the binding result is “binds”. Turning to B3, the binding entry was “binds”.

These data come from publication PMC11322209.
